The campaign covered roughly 260,000 compounds. About 1,500 (0.58%) were called active. Inconclusive means that the source gave no clear call. Such entries were picked first, then a sample of the others.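 The calls were made as follows: active = inhibition above a set limit at one or more doses, reproduced on every date tested; inconclusive = results disagree between test dates, or hit never tested in dose response; inactive = the rest.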
What follows are molecules tested against Virion infectivity factor (Human immunodeficiency virus type 1 group M subtype B (isolate BH10)) + Virion infectivity factor (Human immunodeficiency virus type 1 group M subtype B (isolate BRU/LAI)) + Virion infectivity factor (Human immunodeficiency virus type 1 group M subtype B (isolate PCV12)) + Virion infectivity factor (Human immunodeficiency virus type 1 group M subtype B (isolate HXB2)) + DNA dC->dU-editing enzyme APOBEC-3G (Homo sapiens) (UniProt P69720+P69721+P69722+P69723+Q9HC16) (assay: inhibitors of Vif binding to APOBEC3G peptide, primary screen, biochemical, TR-FRET, GST-Vif 1-94, biotin-A3G peptide, dose response retest (AID 1117319;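 also: Vif residues 1-94 fused to GST binding biotinylated APOBEC3G peptide 110-148; 0% = full assay without inhibitor and 100% = GST in place of GST-Vif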)). Details: stronger effect = higher value.

The chains behind the UniProt entries cited, without tags or fusion partners. Where a name states a change or a piece, a line headed by the entry shows the natural chain unless it says otherwise.
UniProt P69720: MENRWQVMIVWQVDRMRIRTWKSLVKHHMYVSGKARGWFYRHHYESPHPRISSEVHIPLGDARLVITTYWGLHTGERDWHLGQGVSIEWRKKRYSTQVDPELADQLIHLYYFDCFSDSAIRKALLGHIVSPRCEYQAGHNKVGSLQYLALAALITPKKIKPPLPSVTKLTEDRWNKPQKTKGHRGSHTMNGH
UniProt P69721: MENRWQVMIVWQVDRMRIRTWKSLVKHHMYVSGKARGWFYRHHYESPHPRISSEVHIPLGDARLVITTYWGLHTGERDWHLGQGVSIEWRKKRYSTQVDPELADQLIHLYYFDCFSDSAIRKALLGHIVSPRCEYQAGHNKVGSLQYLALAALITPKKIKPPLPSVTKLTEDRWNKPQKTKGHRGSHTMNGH
UniProt P69722: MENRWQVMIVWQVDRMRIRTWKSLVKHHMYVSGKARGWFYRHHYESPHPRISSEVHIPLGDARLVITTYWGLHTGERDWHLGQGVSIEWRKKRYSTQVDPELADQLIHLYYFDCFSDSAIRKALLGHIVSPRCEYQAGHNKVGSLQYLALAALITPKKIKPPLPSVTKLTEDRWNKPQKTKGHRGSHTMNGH
UniProt P69723: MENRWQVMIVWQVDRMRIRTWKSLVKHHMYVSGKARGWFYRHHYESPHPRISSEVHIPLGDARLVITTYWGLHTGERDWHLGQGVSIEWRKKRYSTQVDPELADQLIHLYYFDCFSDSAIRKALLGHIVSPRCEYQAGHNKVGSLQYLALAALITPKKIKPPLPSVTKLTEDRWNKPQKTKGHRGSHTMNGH
UniProt Q9HC16: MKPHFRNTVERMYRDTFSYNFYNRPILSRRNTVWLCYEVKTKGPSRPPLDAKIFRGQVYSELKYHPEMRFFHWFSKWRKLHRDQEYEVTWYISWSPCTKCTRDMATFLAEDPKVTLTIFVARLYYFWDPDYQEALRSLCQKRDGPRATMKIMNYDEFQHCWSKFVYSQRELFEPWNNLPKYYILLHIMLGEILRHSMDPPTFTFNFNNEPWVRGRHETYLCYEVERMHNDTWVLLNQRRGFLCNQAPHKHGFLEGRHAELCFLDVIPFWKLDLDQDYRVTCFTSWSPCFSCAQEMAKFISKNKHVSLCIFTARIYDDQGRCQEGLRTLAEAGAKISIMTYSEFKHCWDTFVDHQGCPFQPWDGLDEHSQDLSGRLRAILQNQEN

| SMILES | inhibition |
| --- | --- |
| O=C(CSc1nnc(CNC(=O)c2c(F)cccc2Cl)o1)Nc1ccc2c(c1)OCCO2 | inconclusive: 33.6% |
| CC(C)OCCCN1C=C2C(=O)C(C)(OC(=O)CCc3ccccc3)C(=O)C=C2C=C1c1ccc(C#N)cc1 (stereo not drawn) | inactive: 12.3% |
| COc1ccc(N2CCCCn3c2nc2c3c(=O)[nH]c(=O)n2C)cc1 | inconclusive: 60.7% |
| COc1ccc(N(Cc2ccccc2)C(=O)c2ccccc2[N+](=O)[O-])cc1 | inconclusive: 37.4% |
| Cc1ccc2n(n1)c(=O)c(Cc1ccccc1)c([O-])[n+]2-c1ccccc1 | inconclusive: 33.3% |
| Cc1cc([N+](=O)[O-])nn1CC(=O)NNC(=S)Nc1ccc([N+](=O)[O-])cc1 | inconclusive: 53.5% |
| COc1cccc2[nH]c3c(=O)n(CCCN4CCOCC4)cnc3c12 | inconclusive: 44.7% |
| Cc1cc(N2CCN(c3ccc(F)cc3)CC2)n2ncnc2n1 | inconclusive: 36.2% |
| Cc1ccc(NC(=O)c2sc3nc(CCl)[nH]c(=O)c3c2C)c(C)c1 | inconclusive: 59.3% |
| C=CCC(O)c1c(-c2ccccc2)nn(C)c1Cl (stereo not drawn) | inconclusive: 39.9% |
| CN(Cc1ccccc1)c1oc(-c2ccco2)nc1C#N | inconclusive: 36.4% |
| C=CCn1c(SCC(=O)NCCOC)nc2scc(-c3ccco3)c2c1=O | inactive: 27.8% |
| O=C(Nc1ccc(S(=O)(=O)Nc2ncccn2)cc1)C1=NN(c2ccccc2)C(=O)CC1 | inconclusive: 49.2% |
| COC(=O)c1nn(-c2ccccc2)c(Sc2ccc(Cl)cc2)c1/C=N/O | inconclusive: 37.3% |
| COC/C=C/C1=CC2=CC(=O)C(C)(OC(=O)c3cnc4ccccc4n3)C(=O)C2=CN1C(CO)CO (stereo not drawn) | inactive: 19.5% |
| N/C(Cc1nc(-c2ccc(Cl)cc2)cs1)=N/O | inconclusive: 57.1% |
| CC(C)C(CC(=O)N1CCCCC1)C1CCOC(C)(C)C1 (stereo not drawn) | inconclusive: 35.2% |
| CCN(CC)c1nc2ccccc2nc1C(C#N)C(=O)NCCCOC (stereo not drawn) | inconclusive: 33.6% |
| O=C(Oc1ccc(Br)cc1C(=S)N1CCCC1)c1ccccc1F | inconclusive: 42.4% |
| Cc1ccc(NC(=O)CNc2cccc(C)c2C)c(C)c1 | inactive: 21.8% |

Nothing new here: an excerpt of the list.

| SMILES | inhibition |
| --- | --- |
| Cc1ccc2n(n1)c(=O)c(Cc1ccccc1)c([O-])[n+]2-c1ccccc1 | inconclusive: 33.3% |
| Cc1cc([N+](=O)[O-])nn1CC(=O)NNC(=S)Nc1ccc([N+](=O)[O-])cc1 | inconclusive: 53.5% |
| COc1cccc2[nH]c3c(=O)n(CCCN4CCOCC4)cnc3c12 | inconclusive: 44.7% |

Next part:

| SMILES | inhibition |
| --- | --- |
| Brc1ccc(C2=Nc3cccc4cccc(c34)N2)o1 | inconclusive: 44.8% |
| CCn1c(CNC(=O)Cc2ccc(OC)cc2)nnc1SCC(=O)NC1CCCCC1 | inconclusive: 35.7% |
| COCc1nnc(NS(=O)(=O)c2ccc(Cl)cc2)s1 | inactive: -13.7% |
| O=c1oc2c3c4c(cc2c2c1CCC2)OCCN4CCC3 | inconclusive: 27.7% |
| CCOC(=S)SCc1cn2cccc(C)c2n1 | inconclusive: 43.1% |
| COc1ccc(NC(=O)N2CCC(CO)(CC3CCCCO3)CC2)c(OC)c1 (stereo not drawn) | inconclusive: 51.9% |
| CCCCNCc1cc(Br)c(OCC(=O)NCc2ccccc2)c(OC)c1 | inconclusive: 46% |
| c1ccc(Cn2nnnc2C(c2ccncc2)N2CCOCC2)cc1 (stereo not drawn) | inconclusive: 34% |
| Fc1ccc(CNC(=S)Nc2ccc(Cl)cc2Cl)cc1 | inconclusive: 34.3% |
| COc1ccccc1NC(=O)C1=C(C)NC(=O)NC1c1cc(C)cs1 (stereo not drawn) | inconclusive: 45.4% |
| N#CC1=C(N)C(C#N)(C#N)C(c2ccc[nH]2)C2CCCC=C12 (stereo not drawn) | inconclusive: 55.1% |
| CCN(CC)CCN1C(=O)c2ccccc2NC1c1ccc(F)cc1 (stereo not drawn) | inactive: 1.63% |
| Cc1ccc2c(Cl)cc(Cl)c(OCC(=O)Nc3cccc(S(N)(=O)=O)c3)c2n1 | inactive: -2.21% |
| COc1ccc(/C=N\NC(=O)C2=NNC(=O)C2C)cc1 (stereo not drawn) | inconclusive: 35.4% |
| CCOc1ccc(NC(=O)COC(=O)CSCC(=O)Nc2ccc(C)cc2C)cc1 | inconclusive: 50% |
| COc1ccc2nc(Cl)c(/C=N/Nc3ccccn3)cc2c1 | inconclusive: 38.6% |
| C/C(CC(=O)Nc1cccc(C(F)(F)F)c1)=N\NC(=O)C1CCCCC1 | inconclusive: 36.4% |
| CCn1c(Cl)c(C=O)s/c1=N\S(=O)(=O)c1ccccc1 | inconclusive: 34.3% |
| CCOC(=O)c1ccc(NC(=O)NCCc2cnc[nH]2)cc1 | inconclusive: 56.8% |
| NC(=O)CN(N=Nc1cccc([N+](=O)[O-])c1)c1cccc([N+](=O)[O-])c1 | inactive: 10.3% |

| SMILES | inhibition |
| --- | --- |
| O=C(/C=C/c1ccco1)Nc1cc(Cl)ccc1C(=O)O | inconclusive: 33.2% |
| [O-][n+]1cccc2c(Br)cc(Br)c(O)c21 | inconclusive: 38.8% |
| CC1CCCN(S(=O)(=O)c2cccc(C(=O)NCc3ccco3)c2)C1 (stereo not drawn) | inconclusive: 34.4% |
| COCCSc1nc2c(c(=O)[nH]c(=O)n2C)n1CCC(C)C | inactive: 2.86% |
| Clc1ccc2[nH]cc(-c3nnnn3-c3ccc4ccccc4c3)c2c1 | inconclusive: 40.5% |
| CC(C)c1nnc(NC(=O)Cn2nc(-c3ccc4c(c3)OCCO4)ccc2=O)s1 | inconclusive: 53.4% |
| O=C1C(Cl)=C(NCCCN2CCOCC2)C(=O)N1CCc1ccccc1 | inconclusive: 47.7% |
| COc1ccccc1CNC(=O)c1ccc(-c2ccccc2C(F)(F)F)o1 | inconclusive: 40.3% |
| O=C(Nc1ccc(Cl)cn1)c1cc(S(=O)(=O)N2CCCCC2)ccc1Cl | inconclusive: 61.6% |
| CCOC(=O)C(C)n1cnc2c(nnn2-c2ccc(C)cc2)c1=O (stereo not drawn) | inconclusive: 41.2% |
| Cn1c(=O)[nH]c(=O)c2c1nc(N1CCCCCC1)n2Cc1cccc2ccccc12 | inconclusive: 44% |
| COc1ccc(Cl)cc1C(=O)NNC(=O)CSc1nnc2ccccn12 | inactive: -2.97% |
| O=C(N/N=C/C(Br)=C/c1ccccc1)c1cccnc1 | inconclusive: 43% |
| S=C(NN=C(C1CC1)C1CC1)Nc1ccccc1 | inconclusive: 34.9% |
| O=C(CSc1nc2ccccc2s1)c1cc2ccccc2o1 | inconclusive: 55% |
| COc1ccc(C(=O)COC(=O)c2cccnc2Cl)c(OC)c1 | inconclusive: 35.7% |
| O=C(c1ccc(Cl)cc1)c1cnc(-c2ccc(Cl)cc2)s1 | inactive: -4.73% |
| O=c1[nH]nc(Cc2ccc(-c3ccc(Cl)cc3)o2)c2ccccc12 | inconclusive: 43.3% |

Source: PubChem BioAssay AID1117319 (Southern Research Institute, 2015)
